This is an account of results in publication PMC6588571.

Protein sequences, listed by entry. Tags and fused reporters are not part of them. Lines headed by an entry give the natural chain unless they say otherwise; changes in a name come on top.
UniProt P40160: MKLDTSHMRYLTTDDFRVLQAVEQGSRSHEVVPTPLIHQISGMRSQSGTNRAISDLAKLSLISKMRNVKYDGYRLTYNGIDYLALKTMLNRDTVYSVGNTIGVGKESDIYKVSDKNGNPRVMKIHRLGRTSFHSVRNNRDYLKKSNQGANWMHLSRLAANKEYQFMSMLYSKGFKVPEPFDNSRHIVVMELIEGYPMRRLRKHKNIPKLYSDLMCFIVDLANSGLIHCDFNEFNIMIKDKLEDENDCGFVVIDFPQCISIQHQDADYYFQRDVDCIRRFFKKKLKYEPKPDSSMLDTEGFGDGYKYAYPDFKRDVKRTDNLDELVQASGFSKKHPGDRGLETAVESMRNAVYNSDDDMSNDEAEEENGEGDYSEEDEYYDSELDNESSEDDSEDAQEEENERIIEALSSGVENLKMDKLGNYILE

No constants are given. Whether binding was seen depends on the method and setting. For part of these data: Binding seen in cells or lysates may run through a third protein. Some results given as binding are weak or reduced against the parent protein; the word gives no strength. Where a sequence is shown, tags or fusion partners need not be part of it.

The target in experiment [1] is T1, C-terminally TAP-tagged Tsr1 (S. cerevisiae) (UniProt Q07381).
T1 sequence: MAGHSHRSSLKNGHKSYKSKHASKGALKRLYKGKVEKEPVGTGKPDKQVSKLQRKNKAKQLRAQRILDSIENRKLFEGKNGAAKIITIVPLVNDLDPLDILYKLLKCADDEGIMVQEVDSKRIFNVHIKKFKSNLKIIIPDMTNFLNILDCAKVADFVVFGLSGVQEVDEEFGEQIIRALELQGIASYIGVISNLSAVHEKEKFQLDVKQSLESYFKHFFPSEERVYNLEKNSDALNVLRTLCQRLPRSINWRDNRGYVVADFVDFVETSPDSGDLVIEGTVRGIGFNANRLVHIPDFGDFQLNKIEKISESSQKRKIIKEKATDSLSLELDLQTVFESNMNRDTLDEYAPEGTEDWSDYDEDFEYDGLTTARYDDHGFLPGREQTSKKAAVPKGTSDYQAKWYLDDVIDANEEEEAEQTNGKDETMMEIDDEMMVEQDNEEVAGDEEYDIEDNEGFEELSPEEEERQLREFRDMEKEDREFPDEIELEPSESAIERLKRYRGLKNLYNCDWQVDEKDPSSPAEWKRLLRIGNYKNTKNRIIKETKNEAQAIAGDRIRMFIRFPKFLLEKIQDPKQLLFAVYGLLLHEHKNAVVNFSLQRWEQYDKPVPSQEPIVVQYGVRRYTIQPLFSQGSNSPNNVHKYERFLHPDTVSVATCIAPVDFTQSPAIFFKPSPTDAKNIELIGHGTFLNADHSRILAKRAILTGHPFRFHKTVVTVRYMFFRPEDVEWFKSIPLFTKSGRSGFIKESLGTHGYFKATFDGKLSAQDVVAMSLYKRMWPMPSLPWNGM
The experiment can be described thus: co-IP; Tsr1-TAP pre-40S particles from yeast lysate bound to IgG beads, eluted with TEV protease, western blotting; wild-type, rps20Δloop, rio2.D253A and ltv1 phosphomutant strains; in the ATP assays the bound particles were incubated with or without 1 mM ATP for 30 min at 4 °C (50 mM TRIS pH 7.5, 100 mM NaCl, 5 mM MgCl2, 0.075% NP-40, 1 mM DTT) and washed before elution.

Experiment [2] deals with T1, C-terminally TAP-tagged Tsr1 (S. cerevisiae). The experiment can be described thus: cryo-EM structure; pre-40S particles from rps20Δloop cells purified via Tsr1-TAP (lysis buffer with 5 mM MgCl2) and a 10–30% sucrose gradient; single particle analysis, classes C1-S20Δloop (3.47 Å) and C2-S20Δloop (3.79 Å); the partners stand in one ribonucleoprotein particle.

On to “Rio2 (endogenous) (from UniProt P40160 1-425) (enzyme)”, for which the binding entry in experiment [1] and in experiment [2] was “binds” in each case.

For “Rio2.D253A (from UniProt P40160 1-425) (enzyme)”, the binding result in experiment [1] is “binds”.
